Taken from: PubChem BioAssay AID720710 (VTT Finland, 2013)

- Screen: 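siRNAs sensitising CCNE1-overexpressing U-2 OS cells to replication stress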 (primary screen)
- System: human U-2 OS bone cancer cells, parental and a cyclin E (CCNE1) overexpressing line
- Reagent: single siRNA against human genes, 1 µM siRNA in the printed spot mix
- Timing: 67 h
- Treatment: half the arrays: hydroxyurea 2 mM for 16 h, then 3 h recovery; other arrays untreated
- Read-out: 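DNA synthesis measured as imaged EdU uptake per nucleus (DAPI) at 67 h, normalised to subgrid median and given as z-score versus non-targeting controls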
- Direction: EdU z-score, cyclin E line, hydroxyurea and EdU z-score, parental, hydroxyurea and EdU z-score, cyclin E line, untreated and EdU z-score, parental, untreated: higher = more DNA synthesis than non-targeting controls
The deposit covers about 1,380 reagents; below is an unselected part. 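One array per condition without replicates; hydroxyurea arrays received 2 mM for 16 h plus 3 h recovery.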 Reagents against one gene are numbered here. Reagent sequences are not shown.

target	reagent	EdU z-score, cyclin E line, hydroxyurea	EdU z-score, parental, hydroxyurea	EdU z-score, cyclin E line, untreated	EdU z-score, parental, untreated
FANCA	1	-0.6	-0.0101	0.116	-0.829
FANCA	2	1.45	0.515	0.361	1.19
ERCC6	1	-0.417	-2.29	-1.82	0.225
ERCC6	2	0.41	0.161	2.11	1.22
CNOT12	1	-1.74	-1.38	-1.69	-1.42
CNOT12	2	-0.409	1.57	-0.754	-1.06
RUVBL2	1	0.118	2.32	-1.13	-1.58
RUVBL2	2	0.398	3.42	0.0448	-0.288
MPG	1	-2.75	-2.61	-0.87	-1.57
MPG	2	1.44	0.289	0.145	-0.8
POLE2	1	-0.801	-1.46	-2.2	-1.82
POLE2	2	-0.713	-0.0349	-1.19	-0.305
NIPBL	1	-0.0652	0.284	-3.54	-2.11
NIPBL	2	1.6	3.14	-0.44	-0.736
CRY2	1	-0.374	-1.3	-1.33	-0.254
CRY2	2	-0.0468	-0.685	-0.724	0.264
ARID1B	1	-2.26	-1.72	-2	-0.277
ARID1B	2	1.65	0.254	-0.361	0.0889
ENPP7	1	0.519	-2.58	-4.56	1.56
ENPP7	2	2.01	1.16	-0.744	1.84
MSH4	1	-0.653	-3.41	-2.85	0.433
MSH4	2	-0.0327	1.86	-1.84	0.905
LOC653972	1	-0.785	1.09	-0.982	-0.473
LOC653972	2	2.26	1.7	-0.0221	1.66
ZNF319	1	-0.386	-0.757	-0.714	-2.47
ZNF319	2	0.184	1.6	-0.274	0.252
POLD1	1	0.228	-5.19	-1.94	-2.31
POLD1	2	1.99	-2.99	0.439	-1.18
SPATA18	1	-0.982	-0.856	-2.66	-1.51
SPATA18	2	1.74	1.18	-0.524	-0.469
DTL	1	-1.59	0.4	-3.03	-1.85
DTL	2	0.697	1.24	-1.06	0.21
MGMT	1	0.192	-1.97	-0.74	-0.436
MGMT	2	0.579	4.16	0.511	0.815
H1-4	1	-0.541	-4.38	-3.02	-1.72
H1-4	2	0.00203	1.29	0.518	-0.88
LRBA	1	-0.458	1.51	-0.67	-0.48
LRBA	2	-0.319	2.14	2.21	0.0926
RRM1	1	-1.21	-3.15	-1.06	-2.42
RRM1	2	0.617	-0.374	1.15	0.319

Sorted by “EdU z-score, cyclin E line, untreated” (ascending): 6 of the entries above.
target	reagent	EdU z-score, cyclin E line, hydroxyurea	EdU z-score, parental, hydroxyurea	EdU z-score, cyclin E line, untreated	EdU z-score, parental, untreated
H1-4	1	-0.541	-4.38	-3.02	-1.72
RRM1	1	-1.21	-3.15	-1.06	-2.42
LRBA	1	-0.458	1.51	-0.67	-0.48
MGMT	2	0.579	4.16	0.511	0.815
H1-4	2	0.00203	1.29	0.518	-0.88
LRBA	2	-0.319	2.14	2.21	0.0926
